Measurements: paper PMC11563670
Results are given in words; binding and its absence hold for the method and conditions named. Binding seen in cells or lysates may run through a third protein. Some binding calls cover weakened binding; strength is not graded here.

Protein sequences, listed by entry. Tags and fused reporters are not part of them. Lines headed by an entry give the natural chain unless they say otherwise; changes in a name come on top. Residues count along the entry.
UniProt Q9NZQ7, residues 19-290: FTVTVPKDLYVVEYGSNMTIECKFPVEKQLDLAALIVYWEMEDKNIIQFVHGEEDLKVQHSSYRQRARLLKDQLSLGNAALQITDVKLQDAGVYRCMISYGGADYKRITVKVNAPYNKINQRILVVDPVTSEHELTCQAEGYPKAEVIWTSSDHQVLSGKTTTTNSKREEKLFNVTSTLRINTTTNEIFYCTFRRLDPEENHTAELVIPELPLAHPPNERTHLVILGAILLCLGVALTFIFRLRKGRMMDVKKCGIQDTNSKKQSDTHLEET
UniProt O75367: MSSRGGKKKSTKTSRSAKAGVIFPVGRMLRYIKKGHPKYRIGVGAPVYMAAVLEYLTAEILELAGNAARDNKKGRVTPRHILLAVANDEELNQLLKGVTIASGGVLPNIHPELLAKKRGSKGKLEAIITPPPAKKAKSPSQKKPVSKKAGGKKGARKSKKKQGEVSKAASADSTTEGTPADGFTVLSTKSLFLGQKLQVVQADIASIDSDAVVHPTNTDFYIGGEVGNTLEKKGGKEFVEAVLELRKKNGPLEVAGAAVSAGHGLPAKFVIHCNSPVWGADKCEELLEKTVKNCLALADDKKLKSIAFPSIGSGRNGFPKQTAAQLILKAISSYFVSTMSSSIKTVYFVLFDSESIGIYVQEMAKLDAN

Target: programmed death ligand 1 (PD-L1) (human (endogenous in Hep3B)) (UniProt Q9NZQ7)
Assay: co-IP; endogenous proteins of Hep3B cells with or without LA; total cell lysate and nuclear extract; 2 ug antibody in cell lysate overnight at 4°C, protein G-Sepharose beads 3 hours at 4°C, immunoblotting

Substance: histone variant macroH2A1 phosphorylated at S146 (mH2A1-p146) (from UniProt O75367 1-369)
- binding: binds
